Experiment [1] has as its target Robo3-GFP fusion protein (Drosophila). The experiment in a line: co-IP; Robo3-GFP precipitated with anti-GFP conjugated beads (Chromotek) from RIPA lysates of S2 cells transfected with the RPTP69d constructs; in Figure 7A also with Slit supernatant added.
For experiment [2] the target is unchanged. Nature of the experiment: co-IP; Slit from the supernatant of S2 stable-expressing cells added to transfected S2 cells 3 days after transfection, cells extracted six hours later; RIPA lysate; Robo3-GFP precipitated with anti-GFP conjugated beads.

No constants are given. Whether binding was seen depends on the method and setting. In cells and extracts the contact can be indirect. Binding can be weak; no strength is given.

B1: RPTP69d full length (receptor, UniProt P16620 29-1462)
chain: SVKQEWAEIGKNVSLECASENEAVAWKLGNQTINKNHTRYKIRTEPLKSNDDGSENNDSQDFIKYKNVLALLDVNIKDSGNYTCTAQTGQNHSTEFQVRPYLPSKVLQSTPDRIKRKIKQDVMLYCLIEMYPQNETTNRNLKWLKDGSQFEFLDTFSSISKLNDTHLNFTLEFTEVYKKENGTYKCTVFDDTGLEITSKEITLFVMEVPQVSIDFAKAVGANKIYLNWTVNDGNDPIQKFFITLQEAGTPTFTYHKDFINGSHTSYILDHFKPNTTYFLRIVGKNSIGNGQPTQYPQGITTLSYDPIFIPKVETTGSTASTITIGWNPPPPDLIDYIQYYELIVSESGEVPKVIEEAIYQQNSRNLPYMFDKLKTATDYEFRVRACSDLTKTCGPWSENVNGTTMDGVATKPTNLSIQCHHDNVTRGNSIAINWDVPKTPNGKVVSYLIHLLGNPMSTVDREMWGPKIRRIDEPHHKTLYESVSPNTNYTVTVSAITRHKKNGEPATGSCLMPVSTPDAIGRTMWSKVNLDSKYVLKLYLPKISERNGPICCYRLYLVRINNDNKELPDPEKLNIATYQEVHSDNVTRSSAYIAEMISSKYFRPEIFLGDEKRFSENNDIIRDNDEICRKCLEGTPFLRKPEIIHIPPQGSLSNSDSELPILSEKDNLIKGANLTEHALKILESKLRDKRNAVTSDENPILSAVNPNVPLHDSSRDVFDGEIDINSNYTGFLEIIVRDRNNALMAYSKYFDIITPATEAEPIQSLNNMDYYLSIGVKAGAVLLGVILVFIVLWVFHHKKTKNELQGEDTLTLRDSLSRALFGRRNHNHSHFITSGNHKGFDAGPIHRLDLENAYKNRHKDTDYGFLREYEMLPNRFSDRTTKNSDLKENACKNRYPDIKAYDQTRVKLAVINGLQTTDYINANFVIGYKERKKFICAQGPMESTIDDFWRMIWEQHLEIIVMLTNLEEYNKAKCAKYWPEKVFDTKQFGDILVKFAQERKTGDYIERTLNVSKNKANVGEEEDRRQITQYHYLTWKDFMAPEHPHGIIKFIRQINSVYSLQRGPILVHCSAGVGRTGTLVALDSLIQQLEEEDSVSIYNTVCDLRHQRNFLVQSLKQYIFLYRALLDTGTFGNTDICIDTMASAIESLKRKPNEGKCKLEVEFEKLLATADEISKSCSVGENEENNMKNRSQEIIPYDRNRVILTPLPMRENSTYINASFIEGYDNSETFIIAQDPLENTIGDFWRMISEQSVTTLVMISEIGDGPRKCPRYWADDEVQYDHILVKYVHSESCPYYTRREFYVTNCKIDDTLKVTQFQYNGWPTVDGEVPEVCRGIIELVDQAYNHYKNNKNSGCRSPLTVHCSLGTDRSSIFVAMCILVQHLRLEKCVDICATTRKLRSQRTGLINSYAQYEFLHRAIINYSDLHHIAESTLD
Take B1: the binding entry in experiment [1] was “binds”.

B2: Slit (ligand, UniProt P24014 37-1504)
chain: EPYSGGFGSSAVSSGGLGSVGIHIPGGGVGVITEARCPRVCSCTGLNVDCSHRGLTSVPRKISADVERLELQGNNLTVIYETDFQRLTKLRMLQLTDNQIHTIERNSFQDLVSLERLRLNNNRLKAIPENFVTSSASLLRLDISNNVITTVGRRVFKGAQSLRSLQLDNNQITCLDEHAFKGLVELEILTLNNNNLTSLPHNIFGGLGRLRALRLSDNPFACDCHLSWLSRFLRSATRLAPYTRCQSPSQLKGQNVADLHDQEFKCSGLTEHAPMECGAENSCPHPCRCADGIVDCREKSLTSVPVTLPDDTTELRLEQNFITELPPKSFSSFRRLRRIDLSNNNISRIAHDALSGLKQLTTLVLYGNKIKDLPSGVFKGLGSLQLLLLNANEISCIRKDAFRDLHSLSLLSLYDNNIQSLANGTFDAMKSIKTVHLAKNPFICDCNLRWLADYLHKNPIETSGARCESPKRMHRRRIESLREEKFKCSWDELRMKLSGECRMDSDCPAMCHCEGTTVDCTGRGLKEIPRDIPLHTTELLLNDNELGRISSDGLFGRLPHLVKLELKRNQLTGIEPNAFEGASHIQELQLGENKIKEISNKMFLGLHQLKTLNLYDNQISCVMPGSFEHLNSLTSLNLASNPFNCNCHLAWFAEWLRKKSLNGGAARCGAPSKVRDVQIKDLPHSEFKCSSENSEGCLGDGYCPPSCTCTGTVVRCSRNQLKEIPRGIPAETSELYLESNEIEQIHYERIRHLRSLTRLDLSNNQITILSNYTFANLTKLSTLIISYNKLQCLQRHALSGLNNLRVLSLHGNRISMLPEGSFEDLKSLTHIALGSNPLYCDCGLKWFSDWIKLDYVEPGIARCAEPEQMKDKLILSTPSSSFVCRGRVRNDILAKCNACFEQPCQNQAQCVALPQREYQCLCQPGYHGKHCEFMIDACYGNPCRNNATCTVLEEGRFSCQCAPGYTGARCETNIDDCLGEIKCQNNATCIDGVESYKCECQPGFSGEFCDTKIQFCSPEFNPCANGAKCMDHFTHYSCDCQAGFHGTNCTDNIDDCQNHMCQNGGTCVDGINDYQCRCPDDYTGKYCEGHNMISMMYPQTSPCQNHECKHGVCFQPNAQGSDYLCRCHPGYTGKWCEYLTSISFVHNNSFVELEPLRTRPEANVTIVFSSAEQNGILMYDGQDAHLAVELFNGRIRVSYDVGNHPVSTMYSFEMVADGKYHAVELLAIKKNFTLRVDRGLARSIINEGSNDYLKLTTPMFLGGLPVDPAQQAYKNWQIRNLTSFKGCMKEVWINHKLVDFGNAQRQQKITPGCALLEGEQQEEEDDEQDFMDETPHIKEEPVDPCLENKCRRGSRCVPNSNARDGYQCKCKHGQRGRYCDQGEGSTEPPTVTAASTCRKEQVREYYTENDCRSRQPLKYAKCVGGCGNQCCAAKIVRRRKVRMVCSNNRKYIKNLDIVRKCGCTKKCY
Regarding B2, the binding entry in experiment [2] is “binds”.

These data come from article PMC5084709.
